{
  "source": "PubChem BioAssay (NCATS)",
  "note": "Inconclusive means that the source gave no clear call. Such entries were picked first, then a sample of the others. Potencies beside an inconclusive call are fits to weak or partial responses and may not hold up. The source made the active and inactive calls. Calls follow the shape of the dose curve; as a rule, active = well fitted curve in the direction sought with a large enough effect; inconclusive = small, poorly fitted or top-dose-only effect, or another doubt; inactive = no such curve, though single readings can be large; an effect the other way counts as inactive or inconclusive. % is scaled to controls: 0 for no effect and ±100 for the full control effect; potency is read from the fitted curve at half-maximal effect. Also: nearly all actives have a fitted effect of over 55% in size.",
  "data": [
    {"test": "qHTS of pediatric cancer cell lines to identify multiple opportunities for drug repurposing: Confirmatory screen for Rh18 cells (AID 1347125)", "conditions": "Rh18 rhabdomyosarcoma cells, viability; activity change, negative = cytotoxic: at 45.9 µM (top of the series)", "outline": "(§1)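 Viability after 48 h compound treatment at 37C, 500-1,000 cells/well, read as ATP luminescence with CellTiter-Glo. Primary screens used 11-point (MIPE, 0.78 nM-46 µM) or 8-point (NPC, 0.59 nM-46 µM) final concentrations; follow-up screens used 11-point dilutions.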", "values": [
      {"smiles": "CNC(=O)c1cc(Oc2ccc(NC(=O)Nc3ccc(Cl)c(C(F)(F)F)c3)cc2)ccn1", "Potency": "inconclusive: 32900 nM [cytotoxic, single point]"},
      {"smiles": "CC1(C)OC2CC3C4CC(F)C5=CC(=O)C=CC5(C)C4C(O)CC3(C)[C@]2(C(=O)CO)O1", "note": "(some centres undefined)", "activity change, negative = cytotoxic": "inactive: 8.16%"},
      {"smiles": "COc1cc2c(cc1OC)[C@@H]1C(=O)c3ccc4c(c3O[C@@H]1CO2)C=CC(C)(C)O4", "Potency": "inconclusive: 1850 nM [cytotoxic, partial curve]"},
      {"smiles": "CC(C)(C)c1cc(NC(=O)Nc2ccc(-c3cn4c(n3)sc3cc(OCCN5CCOCC5)ccc34)cc2)no1", "Potency": "inconclusive: 29300 nM [cytotoxic, partial curve]"},
      {"smiles": "O=C(CC12CC3CC(CC(C3)C1)C2)Nc1cccc2nc(NCCNCCO)ccc12", "activity change, negative = cytotoxic": "inactive: -16.7%"},
      {"smiles": "N#Cc1c(NC(=O)c2cccc3ccccc23)sc2c1CCCC2", "activity change, negative = cytotoxic": "inactive: -7.89%"},
      {"smiles": "CN[C@@H]1CN(c2ccc3c(=O)c(C(=O)O)cn(-c4nccs4)c3n2)C[C@@H]1OC", "Potency": "active: 14400 nM"},
      {"smiles": "COc1ccc(-c2ccc3c(N4CCOC[C@H]4C)nc(N4CCOC[C@H]4C)nc3n2)cc1CO", "Potency": "inconclusive: 165 nM [cytotoxic, full curve]"},
      {"smiles": "CNC(=O)c1cccc(-c2ccc3c(N4CCOC[C@H]4C)nc(N4CCOC[C@H]4C)nc3n2)c1", "Potency": "inconclusive: 1470 nM [cytotoxic, full curve]"},
      {"smiles": "Nc1ncn([C@H]2C[C@H](O)[C@@H](CO)O2)c(=O)n1", "activity change, negative = cytotoxic": "inactive: 3.16%"},
      {"smiles": "FC(F)c1nc2ccccc2n1-c1nc(N2CCOCC2)nc(N2CCOCC2)n1", "Potency": "active: 1850 nM"},
      {"smiles": "C[C@H](c1ccc(F)cc1CCCC(=O)O)N(c1cc(F)ccc1F)S(=O)(=O)c1ccc(Cl)cc1", "Potency": "inconclusive: 36900 nM [cytotoxic, single point]"},
      {"smiles": "COc1cccc2c1C(=O)c1c(O)c3c(c(O)c1C2=O)C[C@@](O)(C(=O)CO)C[C@@H]3O[C@H]1C[C@H](N)[C@@H](O)[C@H](C)O1", "Potency": "active: 585 nM"},
      {"smiles": "O=c1[nH]nc(OCCCc2ccc(Cl)cc2)c(NCc2cccnc2)c1Br", "Potency": "inconclusive: 11700 nM [cytotoxic, partial curve]"},
      {"smiles": "Cc1cnc(Nc2ccc(N3CCN(C)CC3)cc2)nc1Nc1cccc(S(=O)(=O)NC(C)(C)C)c1", "Potency": "active: 2930 nM"},
      {"smiles": "COc1cc2c(cc1OC)[C@@H]1Cc3ccc(OC)c(OC)c3CN1CC2", "Potency": "inconclusive: 1040 nM [cytotoxic, full curve, poor fit]"},
      {"smiles": "NC(=O)Nc1cc(-c2cccc(F)c2)sc1C(=O)N[C@H]1CCCNC1", "Potency": "active: 6570 nM"},
      {"smiles": "CC(C)(N)c1ccc(-c2nc3ccccc3nc2-c2ccccc2)cc1", "Potency": "active: 1650 nM"},
      {"smiles": "CC(=O)O[C@H]1C(=O)[C@@]2(C)C([C@H](OC(=O)c3ccccc3)[C@]3(O)C[C@H](OC(=O)[C@H](O)[C@@H](NC(=O)c4ccccc4)c4ccccc4)C(C)=C1C3(C)C)[C@]1(OC(C)=O)CO[C@@H]1C[C@@H]2O", "note": "(some centres undefined)", "Potency": "inconclusive: 23.3 nM [cytotoxic, full curve, poor fit]"},
      {"smiles": "COc1ccc(C(C)=O)c(O)c1", "activity change, negative = cytotoxic": "inactive: -15.4%"},
      {"smiles": "O=S(=O)(O)CCS", "activity change, negative = cytotoxic": "inactive: -28.5%"},
      {"smiles": "CS(=O)(=O)Nc1ccc([N+](=O)[O-])cc1Oc1ccccc1", "activity change, negative = cytotoxic": "inactive: -17.1%"},
      {"smiles": "CC(C)(C)c1cc(C(C)(C)C)c(NC(=O)c2c[nH]c3ccccc3c2=O)cc1O", "Potency": "inconclusive: 26100 nM [cytotoxic, single point]"}
    ]},
    {"test": "qHTS of pediatric cancer cell lines to identify multiple opportunities for drug repurposing: Confirmatory screen for Rh30 cells (AID 1347126)", "conditions": "Rh30 rhabdomyosarcoma cell viability; series mostly up to 45.9 µM; activity change, negative = cytotoxic: at the top concentration", "outline": "as §1", "values": [
      {"smiles": "CNC(=O)c1cc(Oc2ccc(NC(=O)Nc3ccc(Cl)c(C(F)(F)F)c3)cc2)ccn1", "Potency": "inconclusive: 20800 nM [cytotoxic, partial curve, poor fit]"},
      {"smiles": "CC(C)(C)c1cc(NC(=O)Nc2ccc(-c3cn4c(n3)sc3cc(OCCN5CCOCC5)ccc34)cc2)no1", "Potency": "inconclusive: 20800 nM [cytotoxic, single point]"},
      {"smiles": "COc1ccc(-c2ccc3ncc4c(c3c2)n(-c2ccc(N3CCNCC3)c(C(F)(F)F)c2)c(=O)n4C)cn1", "Potency": "active: 293 nM"},
      {"smiles": "Cc1[nH]nc2ccc(-c3cncc(OC[C@@H](N)Cc4ccccc4)c3)cc12", "Potency": "active: 47900 nM"},
      {"smiles": "O=C(CC12CC3CC(CC(C3)C1)C2)Nc1cccc2nc(NCCNCCO)ccc12", "Potency": "inconclusive: 11700 nM [cytotoxic, partial curve, poor fit]"},
      {"smiles": "N#Cc1c(NC(=O)c2cccc3ccccc23)sc2c1CCCC2", "activity change, negative = cytotoxic": "inactive: -8.94%"},
      {"smiles": "CC(C)[C@H](C(=O)Nc1ccc(C(=O)NO)cc1)c1ccccc1", "Potency": "active: 2330 nM"},
      {"smiles": "CN[C@@H]1CN(c2ccc3c(=O)c(C(=O)O)cn(-c4nccs4)c3n2)C[C@@H]1OC", "Potency": "inconclusive: 12900 nM [cytotoxic, single point]"},
      {"smiles": "COc1ccc(-c2ccc3c(N4CCOC[C@H]4C)nc(N4CCOC[C@H]4C)nc3n2)cc1CO", "Potency": "active: 185 nM"},
      {"smiles": "CNC(=O)c1cccc(-c2ccc3c(N4CCOC[C@H]4C)nc(N4CCOC[C@H]4C)nc3n2)c1", "Potency": "inconclusive: 32.9 nM [cytotoxic, full curve, poor fit]"},
      {"smiles": "C[C@H](c1ccc(F)cc1CCCC(=O)O)N(c1cc(F)ccc1F)S(=O)(=O)c1ccc(Cl)cc1", "activity change, negative = cytotoxic": "inactive: -3.4%"},
      {"smiles": "COc1cccc2c1C(=O)c1c(O)c3c(c(O)c1C2=O)C[C@@](O)(C(=O)CO)C[C@@H]3O[C@H]1C[C@H](N)[C@@H](O)[C@H](C)O1", "Potency": "inconclusive: 32.9 nM [cytotoxic, full curve, poor fit]"},
      {"smiles": "O=c1[nH]nc(OCCCc2ccc(Cl)cc2)c(NCc2cccnc2)c1Br", "Potency": "inconclusive: 9270 nM [cytotoxic, full curve]"},
      {"smiles": "Cc1cnc(Nc2ccc(N3CCN(C)CC3)cc2)nc1Nc1cccc(S(=O)(=O)NC(C)(C)C)c1", "Potency": "inconclusive: 16.5 nM [rising, full curve, poor fit]"},
      {"smiles": "FC(F)(F)c1ccc(C=Cc2nc(COc3ccc(CCCCn4ccnn4)cc3)co2)cc1", "Potency": "inconclusive: 2330 nM [cytotoxic, full curve]"},
      {"smiles": "COc1cc2c(cc1OC)[C@@H]1Cc3ccc(OC)c(OC)c3CN1CC2", "Potency": "inconclusive: 1040 nM [cytotoxic, full curve, poor fit]"},
      {"smiles": "NC(=O)Nc1cc(-c2cccc(F)c2)sc1C(=O)N[C@H]1CCCNC1", "Potency": "inconclusive: 465 nM [cytotoxic, full curve, poor fit]"},
      {"smiles": "Nc1nc(N)nc(-c2cc(Cl)ccc2Cl)n1", "activity change, negative = cytotoxic": "inactive: 28.8% [at 97.2 µM]"},
      {"smiles": "COc1ccc(C(C)=O)c(O)c1", "activity change, negative = cytotoxic": "inactive: 0.362%"},
      {"smiles": "COc1cc(CNC(=O)CCCCC=CC(C)C)ccc1O", "activity change, negative = cytotoxic": "inactive: -0.611%"},
      {"smiles": "CS(=O)(=O)Nc1ccc([N+](=O)[O-])cc1Oc1ccccc1", "activity change, negative = cytotoxic": "inactive: -2.97%"}
    ]}
  ]
}
